This assay addresses GST-GRA8 C-terminal domain (aa 243–269), expressed in 293T cells (Toxoplasma gondii) (UniProt S8F761). In words: pull-down; 293T cells 48 h after co-transfection of mammalian GST fusions (GST-GRA8 constructs with V5-ATP5A1; GST-ATP5A1 constructs with Flag-GRA8); GST pull down, IB with αV5 or αFlag.

Sequences of proteins named here, by UniProt entry; tags and fusion partners are left off. Residues count along the entry.
UniProt S8F761, residues 243-269: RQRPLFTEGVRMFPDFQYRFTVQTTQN
UniProt P25705, residues 44-553: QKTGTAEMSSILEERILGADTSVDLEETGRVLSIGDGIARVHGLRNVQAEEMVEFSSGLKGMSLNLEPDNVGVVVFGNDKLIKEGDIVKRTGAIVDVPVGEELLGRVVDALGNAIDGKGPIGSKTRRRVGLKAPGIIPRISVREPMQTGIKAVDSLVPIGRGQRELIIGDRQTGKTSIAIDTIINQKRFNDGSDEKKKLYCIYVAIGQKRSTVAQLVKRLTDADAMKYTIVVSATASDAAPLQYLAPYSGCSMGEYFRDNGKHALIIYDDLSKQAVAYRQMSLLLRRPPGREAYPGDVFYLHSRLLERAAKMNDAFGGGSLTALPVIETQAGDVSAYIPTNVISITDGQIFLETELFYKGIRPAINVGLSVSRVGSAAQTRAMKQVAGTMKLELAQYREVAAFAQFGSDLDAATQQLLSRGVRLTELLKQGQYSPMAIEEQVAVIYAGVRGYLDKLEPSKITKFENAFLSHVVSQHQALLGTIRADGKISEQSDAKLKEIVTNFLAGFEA

Results are given in words; binding and its absence hold for the method and conditions named. Binding seen in cells or lysates may run through a third protein. Some entries that bind do so weakly or less than the wild type.

For “V5-ATP5A1 (full length), expressed in 293T cells (from UniProt P25705 44-553)”, the binding entry is reported as “binds weakly”.

Source of the values: publication PMC5898902.
